The supplement of paper PMC6078165

Tested on: MDAMB468
Assay: relative JC-1 red fluorescence (viability) vs pre-drug, coculture with fibroblast (fraction); higher = more viable cancer cells
Procedure: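 JC-1 labelled TNBC cells cocultured 1:1 (1,500 cells each) with CellTrace Violet stained primary or stromal fibroblasts in 384-well plates in FluoroBrite medium, treated with one of 42 anticancer drugs at 0.1, 1, 10 or 100 uM. JC-1 red fluorescence (mitochondrial integrity in cancer cells only) was read by plate reader every 8 h for 72 h. Values are normalised to each well's pre-drug value. The stock of one drug was tenfold lower, so its dose labels may be too high.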

CO[C@@]12[C@H](COC(N)=O)C3=C(C(=O)C(C)=C(N)C3=O)N1C[C@@H]1N[C@@H]12 [Mitomycin C]
relative JC-1 red fluorescence
Settings | 8 h | 16 h | 24 h | 32 h | 40 h | 48 h | 56 h | 64 h | 72 h
0.1 µM, coculture fibroblast: C12385 | 0.902 | 0.845 | 0.785 | 0.713 | 0.663 | 0.641 | 0.594 | 0.5538 | 0.528
0.1 µM, coculture fibroblast: H6013 | 0.888 | 0.831 | 0.7859 | 0.7716 | 0.72 | 0.704 | 0.656 | 0.627 | 0.579
0.1 µM, coculture fibroblast: H6019 | 0.839 | 0.778 | 0.729 | 0.655 | 0.589 | 0.5613 | 0.499 | 0.45385 | 0.4189
0.1 µM, coculture fibroblast: H6076 | 0.982 | 0.961 | 0.9229 | 0.924 | 0.845 | 0.845 | 0.8 | 0.779 | 0.823
0.1 µM, coculture fibroblast: H6231 | 0.834 | 0.863 | 0.91 | 0.8434 | 0.809 | 0.769 | 0.708 | 0.6632 | 0.6323
0.1 µM, coculture fibroblast: HADF | 0.88267 | 0.817 | 0.7346 | 0.719 | 0.659 | 0.634 | 0.594 | 0.572 | 0.5352
0.1 µM, coculture fibroblast: HCFa | 0.871 | 0.797 | 0.741 | 0.719 | 0.642 | 0.633 | 0.581 | 0.541 | 0.501
0.1 µM, coculture fibroblast: HCPF | 0.862 | 0.955 | 0.852 | 0.83 | 0.764 | 0.727 | 0.6638 | 0.645 | 0.615
0.1 µM, coculture fibroblast: HHSteC | 0.922 | 0.853 | 0.82 | 0.789 | 0.746 | 0.743 | 0.673 | 0.643 | 0.585
0.1 µM, coculture fibroblast: HMF | 0.8483 | 0.9333 | 0.848 | 0.82 | 0.752 | 0.726 | 0.677 | 0.656 | 0.631
0.1 µM, coculture fibroblast: HPFa | 0.923 | 0.895 | 0.83 | 0.774 | 0.736 | 0.733 | 0.66 | 0.63 | 0.555
0.1 µM, coculture fibroblast: HUF | 0.9001 | 0.807 | 0.75 | 0.688 | 0.63 | 0.602 | 0.558 | 0.534 | 0.5
0.1 µM, coculture fibroblast: Hs5 | 0.813 | 0.972 | 0.907 | 0.876 | 0.805 | 0.772 | 0.727 | 0.695 | 0.713
0.1 µM, coculture fibroblast: Hs27A | 0.86871 | 0.793 | 0.764 | 0.77 | 0.717 | 0.714 | 0.688 | 0.68 | 0.634
0.1 µM, coculture fibroblast: Hs343T | 0.896 | 0.976 | 0.904 | 0.878 | 0.796 | 0.776 | 0.707 | 0.68 | 0.651
0.1 µM, coculture fibroblast: WS1 | 0.8882 | 0.7914 | 0.736 | 0.671 | 0.618 | 0.588 | 0.553 | 0.516 | 0.491
1 µM, coculture fibroblast: C12385 | 0.872 | 0.7939 | 0.765 | 0.703 | 0.647 | 0.629 | 0.575 | 0.537 | 0.519
1 µM, coculture fibroblast: H6013 | 0.854 | 0.848 | 0.795 | 0.762 | 0.714 | 0.6934 | 0.642 | 0.612 | 0.537
1 µM, coculture fibroblast: H6019 | 0.83 | 0.799 | 0.746 | 0.673 | 0.598 | 0.565 | 0.494 | 0.439 | 0.407
1 µM, coculture fibroblast: H6076 | 0.903 | 0.894 | 0.832 | 0.81 | 0.731 | 0.695 | 0.644 | 0.606 | 0.615
1 µM, coculture fibroblast: H6231 | 0.865 | 0.865 | 0.82 | 0.821 | 0.745 | 0.719 | 0.652 | 0.622 | 0.61
1 µM, coculture fibroblast: HADF | 0.845 | 0.8413 | 0.778 | 0.7643 | 0.714 | 0.687 | 0.639 | 0.63 | 0.565
1 µM, coculture fibroblast: HCFa | 0.847 | 0.828 | 0.766 | 0.723 | 0.646 | 0.63 | 0.581 | 0.541 | 0.484
1 µM, coculture fibroblast: HCPF | 0.8183 | 0.895 | 0.805 | 0.785 | 0.713 | 0.677 | 0.61 | 0.587 | 0.5699
1 µM, coculture fibroblast: HHSteC | 0.8708 | 0.864 | 0.829 | 0.779 | 0.754 | 0.744 | 0.681 | 0.655 | 0.59
1 µM, coculture fibroblast: HMF | 0.819 | 0.919 | 0.847 | 0.806 | 0.724 | 0.695 | 0.633 | 0.599 | 0.557
1 µM, coculture fibroblast: HPFa | 0.951 | 0.8837 | 0.84 | 0.785 | 0.754 | 0.755 | 0.699 | 0.679 | 0.6
1 µM, coculture fibroblast: HUF | 0.9058 | 0.79 | 0.739 | 0.673 | 0.617 | 0.583 | 0.527 | 0.496 | 0.471
1 µM, coculture fibroblast: Hs5 | 0.971 | 0.893 | 0.852 | 0.828 | 0.753 | 0.722 | 0.682 | 0.652 | 0.6812
1 µM, coculture fibroblast: Hs27A | 0.838 | 0.833 | 0.75 | 0.731 | 0.675 | 0.664 | 0.63 | 0.609 | 0.549
1 µM, coculture fibroblast: Hs343T | 0.868 | 0.874 | 0.835 | 0.806 | 0.713 | 0.682 | 0.623 | 0.593 | 0.564
1 µM, coculture fibroblast: WS1 | 0.835 | 0.775 | 0.723 | 0.665 | 0.611 | 0.578 | 0.543 | 0.511 | 0.492

The reference is the same well before dosing, and untreated signal decays as well.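 Fibroblast labels denote human fibroblasts, mainly primary ones from uterus (C12385, HUF), lung (H6013), bone (Hs27A), adrenal (HADF) and skin (WS1), plus mammary HMF and breast cancer-associated Hs343T. Cancer cells are basal-like or mesenchymal-like triple-negative breast cancer lines. A hit is a response shift exceeding 3x replicate standard deviation. The tissue of the other fibroblasts is not given here.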
